Primary screen of a compound library

Source: ChEMBL document CHEMBL3988442, “University of Dundee, Small-Polar-MMV Screening Library” (2021).

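Whole-cell assay for inhibitors of Mycobacterium tuberculosis growth, labelled Cornell in the record; the read-out is not stated. The concentration is filed as 10 mM, unlikely as a test dose, so the dose is not known. The record gives no direction; compounds strong in two other growth screens of this library score well above the rest, so higher reads as stronger inhibition. Size under these conditions: about 53,000 compounds, about 900 of them at 50% or above in at least one test.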

Results are given as percent effect. How 0% and 100% were set is not recorded. Most values in the screen are low, and negative values occur. The compounds are a random part of those screened.

O=C(O)C(F)(F)F.O=C(O)C(F)(F)F.O=C(O)C(F)(F)F.[H][C@@]12CC(=O)N(Cc3ccncc3)[C@@]1([H])CCN2Cc1ccccn1 gave -13.69%.
Cc1csc(CCNCc2cnc3c(c2)c(C)nn3C)n1.Cl gave 44.32%.
Cc1cnn(CC2CCCN2Cc2cc(=O)n3ccccc3n2)c1 (centres undefined) gave 6.378%.
COCC(=O)N1CCC2(CCc3ccc(F)cc32)CC1.Cl gave 31.39%.
c1cnn(CCNCc2csc(-c3ccsc3)n2)c1 gave -2.857%.
CC(O)CNCc1ccc(OCc2ccc3c(c2)OCCO3)cc1.Cl (centres undefined) gave 1.03%.
O=C(NCCN1CCOCC1)c1cc(-c2ccc(Cl)s2)[nH]n1 gave 3.42%.
CCc1cnc(N)nc1NCc1ccc(OC)cc1OC gave 7.685%.
COCCN(Cc1cccs1)c1nc(CCN)nc2ccccc12 gave 19.8%.
[H][C@]12CCN(C(=O)C(C)(C)C)CC[C@@]1([H])S(=O)(=O)CCN2S(C)(=O)=O gave -16.23%.
CCOc1cccc(C(=O)N2CCC3(CC2)[C@H](O)C[C@@H]3OC)c1 gave -8.063%.
CC(C)C(=O)NCC(=O)NCC1CCN(c2cnn(C)c(=O)c2)CC1 gave -1.457%.
O=C(c1ccc(Cl)cc1)N1CCCn2nnc(Cn3cccn3)c2C1 gave -26.45%.
CCCn1nc(C)c(-c2cncn2CCN(C)C2CCCC2)c1C.Cl gave 8.35%.
O=C(O)C(F)(F)F.[H][C@@]12OCCN(c3ncc(F)cn3)[C@@]1([H])CC[C@H]2OCC1CCOCC1 gave -12.23%.
Fc1ccc(CN2CCc3ncnc(C4CCOC4)c3CC2)cc1.O=C(O)C(F)(F)F (centres undefined) gave 20.69%.
NC(=O)C1CCN(CC(=O)NCCc2c(F)cccc2F)CC1 gave -3.193%.
Cc1cc(N2CCN(C(=O)C(C)n3ccnc3C(C)C)CC2)cc(C)n1 (centres undefined) gave 21.29%.
COc1cccc(N2CCN(Cc3cccc(CCN)c3)CC2=O)c1 gave 56.89%.
CSCCC(=O)N(C/C=C/c1ccccc1)CCO gave -2.824%.
CCC(C(=O)N1CCCN(CCN(C)C)CC1)N1CCCC1=O (centres undefined) gave -12.45%.
CCCC(=O)N(Cc1ccncc1)C(C)CC (centres undefined) gave 0.08392%.
Cc1ccccc1CS(=O)(=O)CC(=O)N(C)Cc1ccccc1F gave 34.57%.
Cc1nn(CCNc2ncnc3c2NC(=O)CN3)c(C)c1Cl gave 45.57%.
Cc1nc(CN(CCS(C)(=O)=O)C(C)(C)C)no1 gave -63.85%.
CN(c1ccc(F)c(F)c1)S(=O)(=O)c1cc2c(c(C(=O)O)c1)OCCO2 gave -13.2%.
COC(=O)c1ccc(CN(C)C(=O)c2cnsn2)cc1 gave 6.196%.
Cc1cc(C(F)(F)F)nc(N(C)Cc2c(C)noc2C)n1 gave -20.61%.
COc1cccc(CNCc2ccccc2Cl)c1O gave -0.8125%.
Cn1ncc2c(=O)[nH]c(CN3CCCC3CCc3ccccc3)nc21 (centres undefined) gave -3.057%.
Cc1nc(CCN)cc(N2CCC(O)(c3ccc(Cl)cc3)CC2)n1 gave 9.425%.
[H][C@@]12CS(=O)(=O)C[C@]1([H])N(Cc1nc3ccccc3[nH]1)CCN2CC1CC1 gave 0.6946%.
CNS(=O)(=O)c1cccc(C(C)NCc2cccc(O)c2)c1 (centres undefined) gave -2.376%.
Cc1cccc(C2CCCN(C(=O)CN3CCC(C(N)=O)CC3)C2)c1 (centres undefined) gave 17.67%.
CSc1ccc(C)c(C(=O)Nc2c(C(N)=O)n[nH]c2C)c1 gave -17.81%.
O=C(NCCO)Nc1cccc(Cl)c1SC(F)F gave -3.829%.
CN(C)CCOCc1nnc2n1CCN(CC1CC1)CC2.O=C(O)C(F)(F)F.O=C(O)C(F)(F)F gave -11.96%.
[H][C@@]12CN(C3CCOCC3)C[C@@]1([H])N(Cc1ccncc1)C(=O)CO2 gave 11.98%.
Cc1ccc(C)c(OCCN(C)C(=O)C2CCCN2C(N)=O)c1C (centres undefined) gave 16.51%.
COCC(=O)N1CCC2(CCC2NS(=O)(=O)c2ccccc2)CC1 (centres undefined) gave -26.68%.
CC(C)(C)c1nc(CC(=O)NCCC(=O)Nc2ccncc2)cs1 gave -20%.
CC(C)c1cc(NC2CCCN(C(=O)c3cccs3)C2)ncn1 (centres undefined) gave 14.38%.
CC(C)NC(=O)c1cc2c(nc1N(C)C)CCN(S(=O)(=O)C1CC1)CC2 gave 5.816%.
Clc1ccc(C(CNCc2ccncc2)n2cccn2)cc1 (centres undefined) gave 26.54%.
CC(=O)N(C)Cc1ccc(OCc2cccs2)cc1 gave 30.65%.
CCC(C)CNC(=O)[C@@H]1CCCN1c1nccc(Nc2ccccc2)n1 (some centres undefined) gave -12.19%.

Repeated from the top, 6 entries:

Result for O=C(O)C(F)(F)F.O=C(O)C(F)(F)F.O=C(O)C(F)(F)F.[H][C@@]12CC(=O)N(Cc3ccncc3)[C@@]1([H])CCN2Cc1ccccn1 was -13.69%.
Result for Cc1csc(CCNCc2cnc3c(c2)c(C)nn3C)n1.Cl was 44.32%.
Result for Cc1cnn(CC2CCCN2Cc2cc(=O)n3ccccc3n2)c1 (centres undefined) was 6.378%.
Result for COCC(=O)N1CCC2(CCc3ccc(F)cc32)CC1.Cl was 31.39%.
Result for c1cnn(CCNCc2csc(-c3ccsc3)n2)c1 was -2.857%.
Result for CC(O)CNCc1ccc(OCc2ccc3c(c2)OCCO3)cc1.Cl (centres undefined) was 1.03%.